# Test results taken from PubChem BioAssay AID602313 (National Center for Advancing Translational Sciences (NCATS), 2012).
# The whole screen tested about 390,000 compounds, of which about 760 (0.19%) were called active. The shares of active, inactive and inconclusive entries below differ from those in the screen. The call rests on the fitted dose curve; in most records, active means well fitted inhibition curve with a large enough effect; inconclusive means small, poorly fitted or top-dose-only effect; inactive means flat fitted curve, though single readings scatter. Potencies of inconclusive entries are doubtful fits and often do not repeat.
# Test: qHTS for Inhibitors of Vif-A3F Interactions: qHTS; further: nearly all actives have a fitted effect of over 65% in size; on activity, negative = active: % of control where 0% means no effect
# Conditions: HeLa A3F-eYFP + Vif (tagged APOBEC3F with the HIV-1 protein that degrades it), YFP fluorescence increase; series mostly up to 46.1 µM; activity, negative = active: at the top concentration
# Procedure, shortened: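 HeLa cells stably expressing A3F-eYFP plus Vif, plated and incubated overnight at 37 deg C, then exposed to compounds overnight at 37 deg C. Blocked degradation read as raised yellow fluorescence (Ex 488/Em 500-530).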
# Potency means the concentration at half of the fitted maximal effect.
SMILES,Potency,"activity, negative = active"
O=C1NC(=O)C2(CCCCCCCCCCC2)N1,"inconclusive: 2.82 µM [inhibitor, single point]",
COc1ccc2oc(=O)c(-c3nc4ccc(C)cc4[nH]3)cc2c1,"inconclusive: 3.16 µM [inhibitor, partial curve, poor fit]",
COc1ccc(N(C(C)C(=O)N/N=C(\C)C(C)(C)C)S(C)(=O)=O)cc1 (configuration not stated),"inconclusive: 6.31 µM [inhibitor, single point]",
Cc1cccc(C)c1NC(=O)COC(=O)CSc1nnc(N)s1,"inconclusive: 17.8 µM [inhibitor, single point]",
CCN1CCc2c(sc(NC(=O)CSc3ccccc3)c2-c2nc3ccccc3s2)C1,"inconclusive: 0.631 µM [inhibitor, full curve, poor fit]",
C#Cc1ccc([C@H]2C=C(C(=O)N3CCN(Cc4ccc5c(c4)OCO5)CC3)O[C@@H](OCC)[C@@H]2CCCO)cc1,,inactive: -1.4%
CN(C)C(CNc1ccc(C(F)(F)F)cc1[N+](=O)[O-])c1ccccc1 (configuration not stated),"inconclusive: 35.5 µM [inhibitor, single point]",
N#CCN1C(=O)C2CCCN2c2ccc(S(=O)(=O)N3CCOCC3)cc21 (configuration not stated),"inconclusive: 35.5 µM [inhibitor, single point]",
Cc1ccc(NC(=S)N2CCN(C)CC2)c(C)c1,,inactive: -6.23%
FC(F)(F)c1cc(-c2ccco2)nc(NCc2ccccc2)n1,"inconclusive: 20 µM [inhibitor, single point]",
Cc1nc2ccc(NC(=O)c3ccc(Cl)c(S(=O)(=O)N(C)c4ccccc4)c3)cc2s1,"inconclusive: 35.5 µM [inhibitor, single point]",
COc1ccc2c(Cl)c(C(=O)N/N=C3\CCCC(=O)C3)sc2c1,"inconclusive: 17.8 µM [inhibitor, partial curve, poor fit]",
COc1ccc(S(=O)(=O)N(C(=O)c2ccncc2)c2ccc3oc(C)c(C(C)=O)c3c2)cc1,"inconclusive: 22.4 µM [inhibitor, single point]",
COc1cc(/C=N/Nc2cc(C)nc(NS(=O)(=O)c3ccccc3)n2)ccc1O,"inconclusive: 11.2 µM [inhibitor, partial curve]",
CCOC(=O)c1nnc2c(-c3ccc(F)cc3)c(C)nn2c1N,"inconclusive: 35.5 µM [inhibitor, single point]",
COc1ccc(-c2noc(CCC(=O)Nc3ccccc3Cl)n2)cc1OC,,inactive: 2.18%
COc1ccc(C(=O)Nc2cc(C(C)=O)c(C)oc2=O)cc1,"inconclusive: 28.2 µM [inhibitor, single point]",

# 2 entries picked at random from the list so far, as already listed:
SMILES,Potency,"activity, negative = active"
C#Cc1ccc([C@H]2C=C(C(=O)N3CCN(Cc4ccc5c(c4)OCO5)CC3)O[C@@H](OCC)[C@@H]2CCCO)cc1,,inactive: -1.4%
Cc1ccc(NC(=S)N2CCN(C)CC2)c(C)c1,,inactive: -6.23%
